# Results published in paper PMC5996148.
# Some of the results follow.
# Key:
# Test in all cases: protein microarray (ProtoArray v5.0), streptavidin-Alexa Fluor 647
# Conditions in all cases: 3'-biotin; 20 mM Tris (pH 7.5), 5 mM MgCl2, 100 mM KCl, 0.1% Tween-20, A/T-rich and random oligonucleotide blockers; temperature not stated; high values mean tight binding
# ENO2 (human) = tested on: ENO2 (human)
# ENTPD1 (human) = tested on: ENTPD1 (human)
# EP400NL (human) = tested on: EP400NL (human)
# EPHA3 (human) = tested on: EPHA3 (human)
# ERCC1 (human) = tested on: ERCC1 (human)
# ERCC6L (human) = tested on: ERCC6L (human)
# ERGIC1 (human) = tested on: ERGIC1 (human)
# ETFB (human) = tested on: ETFB (human)
# ETS1 (human) = tested on: ETS1 (human)
# EXOSC7 (human) = tested on: EXOSC7 (human)
# [1] = tested on: Elongation factor 1-gamma (human)
# [2] = tested on: Enhancer of yellow 2 transcription factor homolog (human)
# Erythropoietin (human) = tested on: Erythropoietin (human)
# [3] = tested on: Eukaryotic translation initiation factor 3 subunit E (human)
# [4] = tested on: Exocyst complex component 3 (human)
# FABP3 (human) = tested on: FABP3 (human)
# [5] = tested on: FACT complex subunit SPT16 (human)
# FAM102A (human) = tested on: FAM102A (human)
# FAM106B (human) = tested on: FAM106B (human)
# FAM120B (human) = tested on: FAM120B (human)
sequence,measurement,setting,value
GGGGACAGGGGTATGGGGAGGGG [G4-3 biotinylated (CtG)],binding signal,ENO2 (human),-0.328 z-score
same,binding signal,ENTPD1 (human),-0.31 z-score
same,binding signal,EP400NL (human),-0.341 z-score
same,binding signal,EPHA3 (human),-0.302 z-score
same,binding signal,ERCC1 (human),-0.324 z-score
same,binding signal,ERCC6L (human),-0.328 z-score
same,binding signal,ERGIC1 (human),-0.317 z-score
same,binding signal,ETFB (human),-0.332 z-score
same,binding signal,ETS1 (human),-0.331 z-score
same,binding signal,EXOSC7 (human),-0.335 z-score
same,binding signal,[1],-0.338 z-score
same,binding signal,[2],-0.33 z-score
same,binding signal,Erythropoietin (human),-0.337 z-score
same,binding signal,[3],-0.322 z-score
same,binding signal,[4],-0.341 z-score
same,binding signal,FABP3 (human),-0.334 z-score
same,binding signal,[5],6.59 z-score
same,binding signal,FAM102A (human),-0.311 z-score
same,binding signal,FAM106B (human),-0.331 z-score
same,binding signal,FAM120B (human),-0.298 z-score

# Given tab-delimited: entries from further up.
sequence	measurement	setting	value
GGGGACAGGGGTATGGGGAGGGG [G4-3 biotinylated (CtG)]	binding signal	ENTPD1 (human)	-0.31 z-score
same	binding signal	[5]	6.59 z-score
